Experimental data: PubChem BioAssay AID504784 (Drosophila RNAi Screening Center, 2011)

Test: 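Fly genes whose silencing alters how much lipid cells keep in droplets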 (primary screen)
Cells: Drosophila Kc167 embryonic cells
Reagents: long dsRNA against Drosophila genes, about 250 ng dsRNA per well
Time to read-out: 4 days
Conditions: cells fed 400 µM oleic acid bound to BSA
Measurement: 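Cells imaged and segmented; ratio of lipid droplet area to nuclear area, log-transformed, then normalised as a B-score over the screen; higher means more stored lipid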
Reading the numbers: droplet/nuclear area B-score: higher = more stored lipid (overstorage)
The screen tested about 17,000 reagents; shown is an unselected part of those with a known target gene and a result. 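Each column is one replicate's B-score; the combined score over replicates was not deposited, so single values may mislead.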 No sequences are given here.

gene knocked down | dsRNA | droplet/nuclear area B-score, replicate 1 | droplet/nuclear area B-score, replicate 2 | droplet/nuclear area B-score, replicate 3
Pex10 (Peroxin 10) | DRSC08599 | 0.194 | -0.493 | 3.39
Pex10 (Peroxin 10) | DRSC22021 | -0.844 | 0.153 | –
CG2076 | DRSC19832 | 1.67 | 0.975 | 0.894
CG3638 | DRSC18533 | 0.0151 | 0.135 | –
Dus4 (Dihydrouridine synthase 4) | DRSC02066 | -0.04 | 0.432 | –
beat-IV (beaten path IV) | DRSC14195 | 1.35 | 0.645 | –
beat-IV (beaten path IV) | DRSC14673 | -0.21 | -3.35 | –
MESR6 (Misexpression suppressor of ras 6) | DRSC10720 | 1.01 | 0.0778 | -0.0536
CG11598 | DRSC14331 | -1.13 | 0.513 | –
CG6985 | DRSC16164 | -1.05 | 0.525 | –
yip7 (yippee interacting protein 7) | DRSC11410 | 1.58 | 1.44 | –
Jwa | DRSC02048 | 1.11 | 0.503 | –
fu (fused) | DRSC20333 | -0.786 | -0.174 | –
MICAL-like | DRSC09829 | -0.0435 | 1.01 | –
CG15930 | DRSC18107 | 0.633 | -0.0141 | –
Tsp5D (Tetraspanin 5D) | DRSC18380 | -0.503 | 0.856 | –
Ctns (Cystinosin) | DRSC15175 | -0.324 | -1.21 | –
UBL3 (Ubiquitin like 3) | DRSC20298 | -0.83 | – | –
UBL3 (Ubiquitin like 3) | DRSC23292 | 0.133 | 1.2 | –
MTPAP (mitochondrial poly(A) polymerase) | DRSC18585 | 1.79 | 2.55 | –
eloF (elongase F) | DRSC15162 | 0.984 | 2.16 | –
CG13359 | DRSC18539 | 0.897 | -0.753 | –
CG7140 | DRSC11799 | 1.41 | 0.65 | –
Smyd4-3 (SET and MYND domain containing, class 4, member 3) | DRSC07041 | -0.349 | -2.34 | –

Single entries from the entries so far:
Dus4 (Dihydrouridine synthase 4) [DRSC02066], droplet/nuclear area B-score, replicate 2: 0.432
UBL3 (Ubiquitin like 3) [DRSC23292], droplet/nuclear area B-score, replicate 2: 1.2
MTPAP (mitochondrial poly(A) polymerase) [DRSC18585], droplet/nuclear area B-score, replicate 1 = 1.79
MESR6 (Misexpression suppressor of ras 6) [DRSC10720], droplet/nuclear area B-score, replicate 2 = 0.0778
Under “droplet/nuclear area B-score, replicate 2”, eloF (elongase F) [DRSC15162] reads 2.16
For “droplet/nuclear area B-score, replicate 2”, Tsp5D (Tetraspanin 5D) [DRSC18380] is entered as 0.856

Next results follow:
gene knocked down | dsRNA | droplet/nuclear area B-score, replicate 1 | droplet/nuclear area B-score, replicate 2 | droplet/nuclear area B-score, replicate 3
BRWD3 | DRSC15369 | -1.08 | 0.153 | –
BRWD3 | DRSC16032 | 1.17 | -1.07 | –
CG11703 | DRSC14356 | -0.907 | -3.72 | –
tex | DRSC16517 | -0.852 | -0.869 | –
CG8545 | DRSC07210 | 0.0958 | 0.048 | –
cos (costa) | DRSC07598 | -0.843 | -0.968 | –
tgy (twiggy) | DRSC20045 | 1.12 | 0.694 | –
CG4282 | DRSC06865 | 0.092 | 0.858 | –
rno (rhinoceros) | DRSC08584 | 0.914 | 1.09 | –
CG13066 | DRSC09949 | -0.332 | -0.599 | –
HDAC4 (Histone deacetylase 4) | DRSC19780 | 0.289 | -0.107 | 0.0189
CG12347 | DRSC14502 | 0.0131 | -0.451 | –
CG31493 | DRSC12583 | 0.42 | -1.47 | –
ab (abrupt) | DRSC03478 | 0.768 | 2.99 | –
ab (abrupt) | DRSC23179 | 2.24 | -0.428 | –
CG3337 | DRSC15478 | 1.3 | 0.000542 | –
CG9302 | DRSC03191 | -0.268 | -0.645 | –
CG14659 | DRSC12245 | 0.0511 | -1.07 | –
CG15375 | DRSC18045 | -1.38 | -1.27 | –
slp1 (sloppy paired 1) | DRSC00835 | 0.75 | 0.162 | –
par-6 | DRSC20359 | 0.166 | -0.105 | –
Lrch (Leucine-rich-repeats and calponin homology domain protein) | DRSC02996 | 0.0527 | 0.391 | –
CG42369 | DRSC03244 | -3.38 | 0.805 | –
Vps13D (Vacuolar protein sorting 13D) | DRSC09818 | 1.36 | 1.39 | –
Vps13D (Vacuolar protein sorting 13D) | DRSC09819 | -0.128 | 1.94 | –
Nup37 (Nucleoporin 37kD) | DRSC14419 | -1.26 | -0.148 | –
pgc (polar granule component) | DRSC04099 | -1.54 | – | –
CG10339 | DRSC04065 | 0.574 | 0.599 | –
CG7567 | DRSC16258 | 0.0019 | 0.772 | –
CG17242 | DRSC00493 | 1.36 | 0.0796 | –
Pvf2 (PDGF- and VEGF-related factor 2) | DRSC00968 | -3.15 | -2.67 | –
Pvf2 (PDGF- and VEGF-related factor 2) | DRSC02283 | 2.63 | -3.65 | –
